Results deposited as PubChem BioAssay AID686938 (Drosophila RNAi Screening Center, 2013).

- Purpose: 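Looking for CRAC channel components and the factors controlling them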 (primary screen)
- System: Drosophila S2R+ cells
- Reagent: long dsRNA against Drosophila genes, about 0.25 µg dsRNA per well, roughly 10,000 cells
- Duration: 5 days of knock-down before the calcium assay
- Challenge: thapsigargin (SERCA pump blocker) to empty calcium stores; entry signal taken 4 min after adding it
- Read-out: 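Duplicate raw fluo-4 intensities per well from a plate reader, at rest and four minutes after thapsigargin emptied calcium stores; entry-to-rest ratio filled for only some wells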
- Direction: calcium entry signal: higher = stronger calcium signal after store depletion; entry to resting ratio: higher = more calcium entry relative to resting level; resting calcium signal: higher = higher resting calcium signal
- Rule for the call: 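Called when the plate z-score of the entry-to-rest ratio, mean of duplicates, falls below −3; wells with low overall dye signal (Fmax z below −2) or more than five off-targets excluded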
- Calls: active = strongly reduced calcium entry; inactive = no strong reduction
The screen tested about 23,000 reagents; shown is an unselected part of those that have a named target and a result. In the full data, 75 (0.33%) are marked active. 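Raw plate signals without normalisation; calls rest on plate z-scores that were not deposited; ratio present for only 364 wells.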 The numbers tell different reagents against one gene apart. Names joined by + are all predicted targets of the reagent. The record does not give: the dose of the treatment.

predicted target	reagent no.	calcium entry signal, replicate 1 (fluorescence units)	calcium entry signal, replicate 2 (fluorescence units)	entry to resting ratio	resting calcium signal, replicate 1 (fluorescence units)	resting calcium signal, replicate 2 (fluorescence units)	outcome
Ccdc114 (Coiled-coil domain containing protein 114)	1	2.48e7	5.54e7		1.31e7	7.14e7	inactive
FucTD (alpha1,3-fucosyltransferase D)	1	3.36e7	3.85e7		1.68e7	1.83e7	inactive
CG15056	1	4.35e7	2.94e7		2.35e7	1.45e7	inactive
CG14568	1	3.47e7	5.57e7		1.58e7	2.13e7	inactive
CG17111	1	5.15e7	5.45e7		2.64e7	2.40e7	inactive
Spn38F (Serpin 38F)	1	5.51e7	5.87e7		2.86e7	2.46e7	inactive
CG3040	1	4.06e7	3.32e7		2.16e7	1.52e7	inactive
CG2540	1	3.95e7	3.94e7		1.77e7	1.88e7	inactive
RabX5	1	3.95e7	4.17e7		2.07e7	1.81e7	inactive
Sin3A	1	1.82e7	2.61e7		1.08e7	1.41e7	inactive
CG43132 (retired record)	1	3.16e7	3.73e7		1.64e7	1.63e7	inactive
Dll (Distal-less)	1	3.52e7	5.38e7		1.91e7	2.37e7	inactive
Su(var)3-7 (Suppressor of variegation 3-7)	1	2.74e7	3.72e7		1.41e7	5.62e7	inactive
CG32313	1	3.75e7	3.47e7		2.21e7	1.59e7	inactive
l(2)gl (lethal (2) giant larvae)	1	3.75e7	2.58e7		1.93e7	1.33e7	inactive
TwdlY (TweedleY)	1	3.72e7	2.12e7		1.92e7	1.05e7	inactive
Cerk (Ceramide kinase)	1	2.39e7	3.27e7		1.16e7	1.50e7	inactive
CG11674	1	3.31e7	3.70e7		1.35e7	1.63e7	inactive
dnd (dead end)	1	4.34e7	5.05e7		8.39e7	2.48e7	inactive
eas (easily shocked)	1	3.93e7	3.08e7		2.07e7	1.42e7	inactive
Liprin-beta	1	2.88e7	4.25e7		1.60e7	2.05e7	inactive
Liprin-beta	2	4.02e7	2.80e7		2.28e7	1.31e7	inactive
CG7730	1	3.09e7	4.13e7		1.42e7	2.78e7	inactive
Osi2 (Osiris 2)	1	4.01e7	3.75e7		1.99e7	1.69e7	inactive
CG13659	1	3.47e7	4.56e7		1.87e7	1.92e7	inactive
SIFa (SIFamide)	1	4.41e7	4.86e7		2.09e7	2.28e7	inactive
CG9582	1	3.36e7	4.66e7		1.57e7	2.00e7	inactive
RnpS1 (RNA-binding protein S1)	1	4.13e7	4.57e7		1.81e7	2.15e7	inactive
CG1024	1	2.40e7	2.38e7		1.19e7	1.19e7	inactive
CG10931	1	3.78e7	4.71e7		1.80e7	2.29e7	inactive
Sara (Smad anchor for receptor activation)	1	3.66e7	5.92e7		1.95e7	2.53e7	inactive
CG16865	1	4.14e7	3.00e7		1.83e7	1.41e7	inactive
Sox21a	1	4.40e7	5.76e7		2.14e7	2.50e7	inactive
CG13082	1	4.91e7	4.96e7		2.15e7	2.21e7	inactive
aust (australin)	1	2.75e7	4.51e7		1.38e7	2.04e7	inactive
CG30031 + deltaTry + gammaTry	1	3.74e7	3.26e7		1.73e7	1.56e7	inactive
CG5890	1	4.80e7	7.18e7		2.43e7	3.13e7	inactive
schlank	1	3.40e7	4.22e7		1.64e7	1.92e7	inactive
schlank	2	3.33e7	4.05e7		1.58e7	1.96e7	inactive
CG5397	1	5.04e7			2.65e7		inactive
CG2260	1	1.91e7	1.63e7		1.08e7	9.01e6	inactive
Scm (Sex comb on midleg)	1	3.89e7	3.94e7		1.90e7	1.97e7	inactive
CG32074	1	2.06e7	6.29e7		1.18e7	2.67e7	inactive
Ptp69D (Protein tyrosine phosphatase 69D)	1	2.37e7	4.04e7		1.20e7	1.69e7	inactive
Fa2h (Fatty acid 2-hydroxylase)	1	4.01e7	4.02e7		1.92e7	1.87e7	inactive
Fa2h (Fatty acid 2-hydroxylase)	2	3.95e7	3.91e7		1.83e7	1.73e7	inactive
et (eye transformer)	1	3.92e7	4.00e7		2.21e7	1.84e7	inactive
CG3226	1	4.03e7	4.46e7		1.69e7	2.04e7	inactive
bib (big brain)	1	4.45e7			2.25e7		inactive
Mal-A8 (Maltase A8)	1	3.79e7	4.46e7		1.68e7	1.67e7	inactive
CG10098	1	4.20e7	5.19e7		1.88e7	2.42e7	inactive
CG17834	1	4.86e7			2.22e7		inactive
TrpRS (Tryptophanyl-tRNA synthetase)	1	2.28e7	2.64e7		1.16e7	1.44e7	inactive
didum (dilute class unconventional myosin)	1	3.67e7	3.79e7		1.75e7	1.61e7	inactive
Npc2e (Niemann-Pick type C-2e)	1	2.95e7	2.37e7		1.54e7	1.32e7	inactive
Npc2e (Niemann-Pick type C-2e)	2	3.84e7	6.30e7		1.90e7	3.07e7	inactive
CG31800	1	2.94e7	2.52e7		1.43e7	1.13e7	inactive
robls54B (roadblock similar 54B)	1	3.24e7	4.05e7		1.58e7	2.13e7	inactive
CG17672	1	3.44e7	3.40e7		2.07e7	1.81e7	inactive
CG17672	2	4.75e7	3.55e7		2.76e7	1.53e7	inactive
dpr14 (defective proboscis extension response 14)	1	4.76e7	4.09e7		2.08e7	1.86e7	inactive
PCNA (Proliferating cell nuclear antigen)	1	3.13e7	2.50e7		1.72e7	1.59e7	inactive
chb (chromosome bows)	1	3.07e7	2.84e7		1.58e7	1.56e7	inactive
CG7457	1	3.29e7	4.18e7		1.58e7	1.79e7	inactive
BomS6 (Bomanin Short 6)	1	4.48e7	3.87e7		2.42e7	1.83e7	inactive
Pos (Poseidon)	1	3.30e7	4.68e7	2.1	1.56e7	1.87e7	inactive
CG31673	1	3.40e7			1.67e7		inactive
CG2111	1	3.11e7	3.43e7		1.53e7	1.71e7	inactive
Rpn3 (Regulatory particle non-ATPase 3)	1	2.08e7	2.35e7		1.51e7	1.52e7	inactive
Grx1 (Glutaredoxin 1)	1	1.86e7	5.09e7		1.04e7	1.91e7	inactive
CG43329	1	2.81e7	5.83e7		1.49e7	2.43e7	inactive
CG13455	1	3.47e7	6.33e7		1.80e7	2.42e7	inactive
CG3355	1	2.43e7	3.08e7		1.34e7	1.50e7	inactive
CG6766	1	3.39e7	6.73e7		1.52e7	2.89e7	inactive
CR31822 (pseudo)	1	3.38e7	3.63e7		1.93e7	1.94e7	inactive

In a second layout: results already given
{"predicted target": "Fa2h (Fatty acid 2-hydroxylase)", "reagent no.": 1, "calcium entry signal, replicate 1 (fluorescence units)": 4.01e7, "calcium entry signal, replicate 2 (fluorescence units)": 4.02e7, "resting calcium signal, replicate 1 (fluorescence units)": 1.92e7, "resting calcium signal, replicate 2 (fluorescence units)": 1.87e7, "outcome": "inactive"}
{"predicted target": "Fa2h (Fatty acid 2-hydroxylase)", "reagent no.": 2, "calcium entry signal, replicate 1 (fluorescence units)": 3.95e7, "calcium entry signal, replicate 2 (fluorescence units)": 3.91e7, "resting calcium signal, replicate 1 (fluorescence units)": 1.83e7, "resting calcium signal, replicate 2 (fluorescence units)": 1.73e7, "outcome": "inactive"}
{"predicted target": "et (eye transformer)", "reagent no.": 1, "calcium entry signal, replicate 1 (fluorescence units)": 3.92e7, "calcium entry signal, replicate 2 (fluorescence units)": 4.00e7, "resting calcium signal, replicate 1 (fluorescence units)": 2.21e7, "resting calcium signal, replicate 2 (fluorescence units)": 1.84e7, "outcome": "inactive"}
{"predicted target": "CG3226", "reagent no.": 1, "calcium entry signal, replicate 1 (fluorescence units)": 4.03e7, "calcium entry signal, replicate 2 (fluorescence units)": 4.46e7, "resting calcium signal, replicate 1 (fluorescence units)": 1.69e7, "resting calcium signal, replicate 2 (fluorescence units)": 2.04e7, "outcome": "inactive"}
{"predicted target": "bib (big brain)", "reagent no.": 1, "calcium entry signal, replicate 1 (fluorescence units)": 4.45e7, "resting calcium signal, replicate 1 (fluorescence units)": 2.25e7, "outcome": "inactive"}
{"predicted target": "Mal-A8 (Maltase A8)", "reagent no.": 1, "calcium entry signal, replicate 1 (fluorescence units)": 3.79e7, "calcium entry signal, replicate 2 (fluorescence units)": 4.46e7, "resting calcium signal, replicate 1 (fluorescence units)": 1.68e7, "resting calcium signal, replicate 2 (fluorescence units)": 1.67e7, "outcome": "inactive"}
{"predicted target": "CG10098", "reagent no.": 1, "calcium entry signal, replicate 1 (fluorescence units)": 4.20e7, "calcium entry signal, replicate 2 (fluorescence units)": 5.19e7, "resting calcium signal, replicate 1 (fluorescence units)": 1.88e7, "resting calcium signal, replicate 2 (fluorescence units)": 2.42e7, "outcome": "inactive"}
{"predicted target": "CG17834", "reagent no.": 1, "calcium entry signal, replicate 1 (fluorescence units)": 4.86e7, "resting calcium signal, replicate 1 (fluorescence units)": 2.22e7, "outcome": "inactive"}
{"predicted target": "TrpRS (Tryptophanyl-tRNA synthetase)", "reagent no.": 1, "calcium entry signal, replicate 1 (fluorescence units)": 2.28e7, "calcium entry signal, replicate 2 (fluorescence units)": 2.64e7, "resting calcium signal, replicate 1 (fluorescence units)": 1.16e7, "resting calcium signal, replicate 2 (fluorescence units)": 1.44e7, "outcome": "inactive"}
